# Laboratory results: the supplement of paper PMC10849652
# By UniProt entry, the sequences of proteins in these tests, tags left out. Where a name states a change or a piece, a line headed by the entry shows the natural chain unless it says otherwise.
# UniProt Q7L5L3: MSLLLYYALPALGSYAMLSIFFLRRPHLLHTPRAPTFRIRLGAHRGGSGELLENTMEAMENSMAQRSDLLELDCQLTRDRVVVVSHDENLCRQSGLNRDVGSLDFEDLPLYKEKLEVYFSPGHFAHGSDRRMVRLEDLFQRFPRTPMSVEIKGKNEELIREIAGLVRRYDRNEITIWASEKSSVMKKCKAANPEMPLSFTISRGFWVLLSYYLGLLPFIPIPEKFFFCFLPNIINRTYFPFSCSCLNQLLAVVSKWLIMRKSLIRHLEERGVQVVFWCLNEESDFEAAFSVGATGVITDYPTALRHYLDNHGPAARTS
# UniProt Q5TBA9: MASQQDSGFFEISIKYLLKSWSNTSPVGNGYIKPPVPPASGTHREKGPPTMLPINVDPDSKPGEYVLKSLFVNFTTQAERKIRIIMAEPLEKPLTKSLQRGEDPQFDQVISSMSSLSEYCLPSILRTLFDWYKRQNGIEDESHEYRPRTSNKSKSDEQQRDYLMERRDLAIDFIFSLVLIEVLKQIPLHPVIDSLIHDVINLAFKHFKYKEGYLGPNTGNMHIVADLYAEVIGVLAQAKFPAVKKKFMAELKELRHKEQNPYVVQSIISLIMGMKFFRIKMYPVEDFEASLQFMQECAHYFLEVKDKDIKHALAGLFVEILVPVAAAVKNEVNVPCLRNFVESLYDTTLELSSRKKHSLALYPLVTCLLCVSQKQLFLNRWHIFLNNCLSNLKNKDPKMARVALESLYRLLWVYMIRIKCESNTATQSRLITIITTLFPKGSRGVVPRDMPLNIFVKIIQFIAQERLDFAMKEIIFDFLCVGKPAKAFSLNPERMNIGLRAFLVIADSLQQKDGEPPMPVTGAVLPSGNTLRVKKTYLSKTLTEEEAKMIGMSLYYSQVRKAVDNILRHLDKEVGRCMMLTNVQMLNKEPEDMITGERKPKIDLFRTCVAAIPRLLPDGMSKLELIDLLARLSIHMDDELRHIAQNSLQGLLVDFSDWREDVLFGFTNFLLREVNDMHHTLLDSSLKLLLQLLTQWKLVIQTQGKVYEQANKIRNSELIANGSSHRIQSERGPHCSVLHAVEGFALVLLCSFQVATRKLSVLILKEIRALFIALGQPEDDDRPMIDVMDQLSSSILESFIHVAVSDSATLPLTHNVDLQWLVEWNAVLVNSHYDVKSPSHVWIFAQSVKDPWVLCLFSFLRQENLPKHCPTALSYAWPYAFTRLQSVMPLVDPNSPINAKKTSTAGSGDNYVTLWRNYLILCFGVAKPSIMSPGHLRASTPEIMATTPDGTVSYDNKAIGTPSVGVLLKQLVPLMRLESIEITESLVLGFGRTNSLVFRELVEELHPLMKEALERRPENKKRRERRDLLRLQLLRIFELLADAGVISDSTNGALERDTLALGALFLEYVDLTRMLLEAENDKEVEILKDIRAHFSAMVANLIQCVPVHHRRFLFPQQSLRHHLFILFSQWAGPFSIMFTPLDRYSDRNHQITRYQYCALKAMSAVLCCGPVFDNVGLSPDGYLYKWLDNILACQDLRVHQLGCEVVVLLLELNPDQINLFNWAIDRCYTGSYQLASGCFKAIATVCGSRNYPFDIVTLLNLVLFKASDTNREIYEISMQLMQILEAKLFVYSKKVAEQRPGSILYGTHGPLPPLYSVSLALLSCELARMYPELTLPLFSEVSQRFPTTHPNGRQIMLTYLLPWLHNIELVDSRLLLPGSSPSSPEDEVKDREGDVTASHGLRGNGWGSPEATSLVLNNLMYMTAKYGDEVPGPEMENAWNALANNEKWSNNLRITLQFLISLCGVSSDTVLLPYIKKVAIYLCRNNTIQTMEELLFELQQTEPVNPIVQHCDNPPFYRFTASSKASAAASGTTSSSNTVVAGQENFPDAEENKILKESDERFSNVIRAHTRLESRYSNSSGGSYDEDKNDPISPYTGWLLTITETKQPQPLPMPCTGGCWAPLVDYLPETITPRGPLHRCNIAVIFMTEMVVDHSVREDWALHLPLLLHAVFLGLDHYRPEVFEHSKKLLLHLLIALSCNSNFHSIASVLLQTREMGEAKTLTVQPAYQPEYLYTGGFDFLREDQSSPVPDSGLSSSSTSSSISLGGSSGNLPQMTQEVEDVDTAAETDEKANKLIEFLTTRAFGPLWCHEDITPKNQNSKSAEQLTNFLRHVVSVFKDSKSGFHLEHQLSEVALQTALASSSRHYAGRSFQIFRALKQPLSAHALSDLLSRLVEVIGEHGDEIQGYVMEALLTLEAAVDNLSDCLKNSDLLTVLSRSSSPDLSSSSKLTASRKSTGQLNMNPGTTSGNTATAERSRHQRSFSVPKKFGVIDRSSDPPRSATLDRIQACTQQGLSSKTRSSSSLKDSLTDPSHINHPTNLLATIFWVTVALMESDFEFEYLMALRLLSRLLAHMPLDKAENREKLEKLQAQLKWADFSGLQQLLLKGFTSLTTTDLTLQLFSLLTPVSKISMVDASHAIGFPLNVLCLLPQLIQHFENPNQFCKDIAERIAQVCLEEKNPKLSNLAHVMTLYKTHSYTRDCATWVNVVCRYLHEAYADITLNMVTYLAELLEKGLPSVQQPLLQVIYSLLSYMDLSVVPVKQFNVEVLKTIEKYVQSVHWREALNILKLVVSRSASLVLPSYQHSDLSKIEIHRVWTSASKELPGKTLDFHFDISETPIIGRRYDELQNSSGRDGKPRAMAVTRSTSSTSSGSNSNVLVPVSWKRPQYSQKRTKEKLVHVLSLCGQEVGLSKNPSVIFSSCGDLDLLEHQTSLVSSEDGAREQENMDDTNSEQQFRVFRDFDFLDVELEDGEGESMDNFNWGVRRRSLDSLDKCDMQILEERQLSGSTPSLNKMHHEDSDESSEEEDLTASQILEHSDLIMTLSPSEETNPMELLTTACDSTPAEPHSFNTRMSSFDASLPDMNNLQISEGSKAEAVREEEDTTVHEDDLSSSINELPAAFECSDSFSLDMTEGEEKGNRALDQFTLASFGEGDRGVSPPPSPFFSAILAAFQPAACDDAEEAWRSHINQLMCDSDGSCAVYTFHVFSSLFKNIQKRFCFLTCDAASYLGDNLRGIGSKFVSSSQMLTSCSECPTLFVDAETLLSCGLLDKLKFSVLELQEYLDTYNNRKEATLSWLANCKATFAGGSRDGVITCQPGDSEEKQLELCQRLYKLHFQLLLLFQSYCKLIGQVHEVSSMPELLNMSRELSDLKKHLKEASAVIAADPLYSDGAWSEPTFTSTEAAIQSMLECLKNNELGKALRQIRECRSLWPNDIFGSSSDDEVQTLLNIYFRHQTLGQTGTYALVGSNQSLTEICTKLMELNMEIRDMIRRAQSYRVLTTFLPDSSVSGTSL
# UniProt Q8IY81: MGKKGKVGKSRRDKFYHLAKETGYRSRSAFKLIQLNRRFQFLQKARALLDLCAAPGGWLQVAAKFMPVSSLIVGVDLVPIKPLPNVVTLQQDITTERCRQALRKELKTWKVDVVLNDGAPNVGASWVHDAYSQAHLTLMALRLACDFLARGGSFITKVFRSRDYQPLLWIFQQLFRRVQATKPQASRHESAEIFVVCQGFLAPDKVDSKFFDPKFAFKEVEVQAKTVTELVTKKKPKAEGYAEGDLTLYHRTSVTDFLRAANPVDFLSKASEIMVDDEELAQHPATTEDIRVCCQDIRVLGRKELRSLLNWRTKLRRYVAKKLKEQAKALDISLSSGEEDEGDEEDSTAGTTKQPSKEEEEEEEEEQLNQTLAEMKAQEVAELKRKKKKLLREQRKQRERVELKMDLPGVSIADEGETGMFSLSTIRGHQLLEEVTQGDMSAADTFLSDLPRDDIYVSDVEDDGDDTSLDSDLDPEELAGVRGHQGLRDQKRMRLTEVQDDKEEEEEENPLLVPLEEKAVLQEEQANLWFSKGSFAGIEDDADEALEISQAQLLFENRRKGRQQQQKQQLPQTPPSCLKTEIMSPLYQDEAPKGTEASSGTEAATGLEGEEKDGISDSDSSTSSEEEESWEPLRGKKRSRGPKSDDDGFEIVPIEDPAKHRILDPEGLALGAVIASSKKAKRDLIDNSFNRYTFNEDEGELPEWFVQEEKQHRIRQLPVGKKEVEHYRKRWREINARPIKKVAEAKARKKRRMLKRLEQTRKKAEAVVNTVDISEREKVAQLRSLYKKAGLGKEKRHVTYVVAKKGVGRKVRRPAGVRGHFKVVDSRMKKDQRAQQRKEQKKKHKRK
# UniProt Q9H2C0: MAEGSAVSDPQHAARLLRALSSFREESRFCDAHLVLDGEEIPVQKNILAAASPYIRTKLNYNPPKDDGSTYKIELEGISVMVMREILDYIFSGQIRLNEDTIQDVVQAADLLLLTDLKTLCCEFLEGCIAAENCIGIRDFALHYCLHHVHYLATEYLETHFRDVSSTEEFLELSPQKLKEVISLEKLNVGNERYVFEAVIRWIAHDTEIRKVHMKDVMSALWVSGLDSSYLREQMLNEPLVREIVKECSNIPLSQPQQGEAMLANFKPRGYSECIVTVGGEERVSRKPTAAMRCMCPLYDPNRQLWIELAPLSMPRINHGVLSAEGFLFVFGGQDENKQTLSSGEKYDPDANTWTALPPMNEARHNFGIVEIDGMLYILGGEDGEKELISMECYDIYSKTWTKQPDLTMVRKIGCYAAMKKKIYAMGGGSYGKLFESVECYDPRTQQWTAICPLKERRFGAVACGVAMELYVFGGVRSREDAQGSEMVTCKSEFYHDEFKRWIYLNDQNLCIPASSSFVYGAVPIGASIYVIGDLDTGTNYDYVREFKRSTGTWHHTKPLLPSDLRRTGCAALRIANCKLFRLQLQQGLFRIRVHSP
# UniProt Q5JV73, whole entry, looked up: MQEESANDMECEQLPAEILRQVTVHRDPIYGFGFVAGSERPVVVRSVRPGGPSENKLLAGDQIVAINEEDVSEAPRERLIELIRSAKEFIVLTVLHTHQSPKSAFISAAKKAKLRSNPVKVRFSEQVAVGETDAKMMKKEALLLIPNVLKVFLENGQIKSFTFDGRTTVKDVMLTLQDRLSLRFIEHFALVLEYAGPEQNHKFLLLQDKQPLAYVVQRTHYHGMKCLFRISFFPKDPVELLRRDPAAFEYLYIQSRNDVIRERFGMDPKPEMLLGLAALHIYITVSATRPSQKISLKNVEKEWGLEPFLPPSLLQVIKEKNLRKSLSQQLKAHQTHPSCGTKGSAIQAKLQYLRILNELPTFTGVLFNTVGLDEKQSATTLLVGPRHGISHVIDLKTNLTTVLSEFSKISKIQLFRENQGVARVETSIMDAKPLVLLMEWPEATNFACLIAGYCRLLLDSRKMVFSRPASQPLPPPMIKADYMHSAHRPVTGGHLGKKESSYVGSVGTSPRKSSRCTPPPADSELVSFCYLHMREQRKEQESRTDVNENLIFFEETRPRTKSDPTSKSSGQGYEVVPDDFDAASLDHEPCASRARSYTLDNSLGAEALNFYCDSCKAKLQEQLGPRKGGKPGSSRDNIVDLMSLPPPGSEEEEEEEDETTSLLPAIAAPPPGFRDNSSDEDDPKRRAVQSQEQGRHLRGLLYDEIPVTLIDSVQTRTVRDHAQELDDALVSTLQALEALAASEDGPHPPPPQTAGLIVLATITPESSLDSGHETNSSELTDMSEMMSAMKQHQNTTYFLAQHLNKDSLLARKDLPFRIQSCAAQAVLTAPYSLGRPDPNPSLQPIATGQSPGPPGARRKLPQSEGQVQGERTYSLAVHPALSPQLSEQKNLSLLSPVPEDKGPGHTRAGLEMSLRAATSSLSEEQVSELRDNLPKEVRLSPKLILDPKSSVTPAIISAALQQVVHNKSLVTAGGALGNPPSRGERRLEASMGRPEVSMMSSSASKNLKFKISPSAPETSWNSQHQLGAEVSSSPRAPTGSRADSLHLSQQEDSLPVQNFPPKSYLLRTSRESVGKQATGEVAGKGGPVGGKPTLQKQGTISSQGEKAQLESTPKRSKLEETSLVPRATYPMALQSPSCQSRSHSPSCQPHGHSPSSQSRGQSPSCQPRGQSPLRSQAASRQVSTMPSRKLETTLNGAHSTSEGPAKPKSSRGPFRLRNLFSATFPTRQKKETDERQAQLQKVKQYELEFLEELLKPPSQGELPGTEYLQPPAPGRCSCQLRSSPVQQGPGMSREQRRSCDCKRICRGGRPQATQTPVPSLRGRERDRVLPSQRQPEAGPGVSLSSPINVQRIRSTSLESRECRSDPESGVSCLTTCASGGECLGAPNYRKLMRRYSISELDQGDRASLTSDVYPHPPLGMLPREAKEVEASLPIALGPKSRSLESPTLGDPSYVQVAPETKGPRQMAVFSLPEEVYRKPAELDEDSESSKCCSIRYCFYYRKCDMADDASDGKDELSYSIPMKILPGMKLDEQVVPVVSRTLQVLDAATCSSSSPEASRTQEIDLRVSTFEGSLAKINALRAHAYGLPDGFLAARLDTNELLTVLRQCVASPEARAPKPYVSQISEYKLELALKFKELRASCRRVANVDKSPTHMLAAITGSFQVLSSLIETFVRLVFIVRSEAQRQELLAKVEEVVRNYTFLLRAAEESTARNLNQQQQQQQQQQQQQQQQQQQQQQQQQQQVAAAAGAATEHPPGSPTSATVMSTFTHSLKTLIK
# Some of the results follow.
# How the values were obtained:
# Test in all cases: log2 fold change, soluble protein after heating vs DMSO (PISA); higher = thermal stabilisation; K562 cells, 10 uM, 30 min; active = over 0.2 and 3.5 SD of the protein, either way, in both replicates (recomputed)
# erlotinib = compound: C#Cc1cccc(Nc2ncnc3cc(OCCOC)c(OCCOC)cc23)c1 [erlotinib]
# Outline: (§1)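 For each measurement, 10 μM compound was applied for 30 min to K562 cells at 2×10^6 cells/mL. Aliquots were heated for 3 min across 48°C-58°C, pooled, and extracted in PBS with 0.5% NP-40 at 4°C; the supernatant after 21,000xg for 90 min was soluble protein. This was quantified by TMTpro 16plex LC-MS/MS with channel sums equalised, and thermal stability was reported relative to control samples from duplicates, on a log2 fold-change scale.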
# [1] = compound: C/C(=N\NC(=O)C1=CC(=CC=C1)S(=O)(=O)N2CCOCC2)/C3=C(C=CC(=C3)Cl)O
# Outline: as §1
# [2] = compound: C1=CC(=C(C=C1Cl)C2=NC3=NC=CN=C3C(=N2)NC4=CC=NC=C4)F
# Outline: as §1
# [3] = compound: C1=CC(=CC=C1C2=NC3=C(N2)C=C(C=C3)C(=O)N)OC4=CC=C(C=C4)Cl
# Outline: as §1
# [4] = compound: C1=CC2=C(C=CC(=C2)/C=C\3/C(=O)NC(=NCC4=CC=CS4)S3)N=C1
# Outline: as §1
# [5] = compound: C1=CC2=NC=CN=C2C=C1/C=C/3\C(=O)NC(=O)S3
# Outline: as §1
# [6] = compound: C1=CC=C(C=C1)C2=NC(=C(N2)C3=CC=NC=C3)C4=CC(=C(C=C4)Cl)O
# Outline: as §1
# [7] = compound: C1=CC=C2C(=C1)C3=NNC4=CC=CC(=C43)C2=O
# Outline: as §1
# [8] = compound: C1CCN(C1)C(=O)NC2=CC=CC(=C2)NC3=NC=C(C(=N3)NCCC4=CN=CN4)Br
# Outline: as §1
# [9] = compound: C1CN(CCC1(CC2=CC=C(C=C2)Cl)N)C3=NC=NC4=C3C=CN4
# Outline: as §1
Target,log2 fold change (erlotinib),log2 fold change [1],log2 fold change [2],log2 fold change [3],log2 fold change [4],log2 fold change [5],log2 fold change [6],log2 fold change [7],log2 fold change [8],log2 fold change [9]
GCFC2 (UniProt P16383),inactive: 0.024,inactive: 0.005,inactive: 0.027,inactive: 0,inactive: -0.076,inactive: -0.108,inactive: -0.04,inactive: 0,inactive: -0.116,inactive: 0.019
GC isoform 3 (UniProt P02774),inactive: -0.244,inactive: -0.078,inactive: 0.007,inactive: -0.014,inactive: 0,inactive: 0.053,inactive: 0.134,inactive: -0.134,inactive: 0.139,inactive: 0.323
FRG1 (UniProt Q14331),inactive: 0.024,inactive: -0.098,inactive: -0.266,inactive: 0.028,inactive: 0.043,inactive: 0.022,inactive: -0.053,inactive: 0.012,inactive: 0.06,inactive: 0.077
FUCA2 (UniProt Q9BTY2),inactive: -0.001,inactive: -0.03,inactive: -0.026,inactive: 0.013,inactive: 0.015,inactive: 0.038,inactive: 0.033,inactive: 0.029,inactive: 0.056,inactive: 0.017
FOXRED2 (UniProt Q8IWF2),inactive: -0.015,inactive: -0.012,inactive: -0.046,inactive: -0.01,inactive: -0.11,,inactive: -0.022,inactive: 0.18,inactive: -0.065,inactive: 0.092
FRA10AC1 isoform 3 (UniProt Q70Z53),inactive: -0.02,inactive: 0.053,inactive: -0.059,inactive: -0.12,inactive: -0.305,inactive: 0.033,,inactive: -0.154,inactive: -0.067,inactive: 0.126
FURIN (UniProt P09958),inactive: -0.019,inactive: -0.11,inactive: 0.041,inactive: 0.035,inactive: 0.08,inactive: -0.016,inactive: -0.024,inactive: -0.046,inactive: -0.166,inactive: 0.033
GATA2 (UniProt P23769),inactive: 0.026,inactive: -0.092,,inactive: -0.133,inactive: -0.072,inactive: 0.004,inactive: 0.005,inactive: -0.043,,
GAA (UniProt P10253),inactive: 0.178,inactive: 0.029,inactive: -0.05,inactive: -0.4,inactive: 0.091,,,inactive: -0.138,inactive: 0.009,inactive: -0.076
FUBP1 isoform 2 (UniProt Q96AE4),inactive: 0.027,inactive: -0.021,inactive: 0.004,inactive: -0.014,inactive: -0.012,inactive: 0.025,inactive: -0.022,inactive: -0.008,inactive: 0.018,inactive: 0.036
GAS6 isoform 1 (UniProt Q14393),inactive: -0.031,,inactive: -0.112,inactive: -0.048,,,,,,
GEMIN8 (UniProt Q9NWZ8),inactive: -0.047,inactive: -0.021,inactive: 0.07,inactive: 0.098,inactive: 0.128,,,inactive: 0.067,inactive: -0.085,inactive: -0.089
FOPNL (UniProt Q96NB1),inactive: -0.022,inactive: 0.001,inactive: 0.201,inactive: 0,inactive: 0.028,inactive: 0.032,,inactive: -0.038,inactive: -0.071,inactive: -0.009
GDPGP1 (UniProt Q6ZNW5),inactive: 0.01,inactive: 0.09,,inactive: 0.003,inactive: -0.067,,,inactive: 0.086,inactive: -0.134,inactive: -0.029
GDAP2 (UniProt Q9NXN4),inactive: 0.044,inactive: -0.05,inactive: -0.204,inactive: 0.01,inactive: 0.043,,,inactive: -0.029,,
GAPDH (UniProt P04406),inactive: -0.004,inactive: 0.045,inactive: 0.005,inactive: 0.007,inactive: -0.085,inactive: -0.02,inactive: 0.069,inactive: 0.005,inactive: -0.017,inactive: 0.063
GEMIN7 (UniProt Q9H840),inactive: 0.105,,inactive: -0.094,inactive: 0.192,,,,,,
GAK (UniProt O14976),inactive: 0.64,inactive: -0.78,inactive: -0.133,inactive: -0.821,inactive: 0.527,,inactive: 0.639,inactive: 0.955,inactive: 1.08,inactive: -0.265
GGT1 (UniProt P19440),inactive: 0.019,inactive: 0.028,inactive: 0.124,inactive: 0.003,inactive: 0.008,inactive: 0.126,,inactive: -0.084,inactive: 0.119,inactive: 0.06
GGNBP2 (UniProt Q9H3C7),inactive: -0.115,inactive: -0.08,inactive: -0.122,inactive: 0.028,inactive: 0.033,inactive: -0.017,inactive: -0.013,inactive: -0.057,inactive: -0.08,inactive: -0.06

Target,log2 fold change (erlotinib),log2 fold change [1],log2 fold change [2],log2 fold change [3],log2 fold change [4],log2 fold change [5],log2 fold change [6],log2 fold change [7],log2 fold change [8],log2 fold change [9]
GBA2 (UniProt Q9HCG7),inactive: 0.063,inactive: 0.095,inactive: 0.04,inactive: 0.01,inactive: 0.033,inactive: -0.023,,inactive: 0.028,inactive: 0.034,inactive: 0.104
GATB (UniProt O75879),inactive: 0.185,inactive: 0.011,inactive: 0.092,inactive: -0.147,inactive: 0.187,,inactive: 0.331,inactive: 0.044,inactive: -0.313,inactive: -0.031
GGPS1 (UniProt O95749),inactive: -0.021,inactive: -0.021,inactive: 0.062,inactive: 0.011,inactive: 0.003,inactive: 0.039,inactive: -0.024,inactive: -0.014,inactive: 0.041,inactive: 0.031
FZD1 (UniProt Q9UP38),inactive: -0.035,,inactive: 0.005,inactive: 0.117,,inactive: -0.049,,,,
GDPD3 (UniProt Q7L5L3),inactive: -0.03,inactive: 0.228,inactive: -0.097,inactive: -0.061,inactive: -0.02,,,inactive: -0.404,,
GFOD1 (UniProt Q9NXC2),inactive: -0.249,,inactive: -0.219,inactive: 0.163,,,,,,
GALNT4 (UniProt Q8N4A0),inactive: 0.077,inactive: 0.062,inactive: 0.075,inactive: 0.026,inactive: 0.086,inactive: 0.044,inactive: -0.012,inactive: 0.008,inactive: 0.006,inactive: 0.005
FRY (UniProt Q5TBA9),inactive: 0.04,inactive: 0.092,inactive: -0.065,inactive: 0.027,inactive: 0.058,inactive: 0.129,,inactive: -0.06,inactive: -0.063,inactive: -0.12
FRRS1 (UniProt Q6ZNA5),inactive: -0.034,inactive: -0.034,inactive: -0.039,inactive: 0.005,inactive: -0.056,inactive: 0.028,inactive: 0.039,inactive: 0.014,inactive: -0.068,inactive: 0.048
FOXO3 (UniProt O43524),inactive: 0.026,inactive: -0.007,inactive: -0.025,inactive: -0.079,inactive: 0.027,,inactive: -0.035,inactive: 0.038,inactive: -0.224,inactive: -0.283
GARS1 (UniProt H7C443),inactive: 0.266,inactive: -0.217,inactive: -0.144,inactive: -0.005,inactive: 0.188,,inactive: -0.352,inactive: -0.039,inactive: 0.162,inactive: -0.026
FTSJ3 (UniProt Q8IY81),inactive: -0.127,inactive: 0.012,,inactive: 0.104,inactive: -0.014,,inactive: 0.029,inactive: 0.052,,
GAB2 (UniProt Q9UQC2),inactive: -0.035,inactive: 0.149,inactive: -0.033,inactive: 0.231,inactive: -0.04,,inactive: -0.294,inactive: -0.196,inactive: -0.29,inactive: 0.012
FOSL1 (UniProt P15407),inactive: -0.029,inactive: -0.122,inactive: -0.088,inactive: -0.086,inactive: 0.106,inactive: -0.061,,inactive: -0.042,,
GAN (UniProt Q9H2C0),inactive: 0.012,inactive: 0.058,inactive: 0.079,inactive: 0.006,inactive: 0.075,inactive: -0.002,inactive: 0.047,inactive: -0.013,inactive: -0.004,inactive: 0.027
GDI2 (UniProt Q5SX86),inactive: -0.038,,inactive: 0.023,inactive: -0.151,,inactive: 0.102,inactive: -0.217,,,
FUT4 (UniProt P22083),,,,,,,,,inactive: 0.039,inactive: 0.131
GALNT10 (UniProt Q86SR1),,inactive: -0.05,inactive: -0.055,,inactive: 0.056,inactive: 0.037,,inactive: 0.09,,
GFOD2 (UniProt Q3B7J2),,,inactive: 0.091,,,,,,,
FRMD8 (UniProt Q9BZ67),,inactive: 0.061,inactive: -0.023,,inactive: 0.134,,,inactive: -0.034,inactive: 0.054,inactive: -0.05

# Given with tabs: entries from further up
Target	log2 fold change (erlotinib)	log2 fold change [1]	log2 fold change [2]	log2 fold change [3]	log2 fold change [4]	log2 fold change [5]	log2 fold change [6]	log2 fold change [7]	log2 fold change [8]	log2 fold change [9]
GDI2 (UniProt Q5SX86)	inactive: -0.038		inactive: 0.023	inactive: -0.151		inactive: 0.102	inactive: -0.217			
FUT4 (UniProt P22083)									inactive: 0.039	inactive: 0.131

# Further entries.

Target,log2 fold change (erlotinib),log2 fold change [1],log2 fold change [2],log2 fold change [3],log2 fold change [4],log2 fold change [5],log2 fold change [6],log2 fold change [7],log2 fold change [8],log2 fold change [9]
FUOM (UniProt A2VDF0),,,,,,inactive: 0.072,,,inactive: 0.037,inactive: -0.289
GALNT3 (UniProt Q14435),inactive: -0.05,,,inactive: 0.027,,,,,inactive: -0.081,inactive: 0.097
GAPDH isoform 2 (UniProt P04406),inactive: 0.045,,,inactive: 0.054,,,,,,
GABPB1 isoform 3 (UniProt Q06547),,,,,,inactive: 0.002,,,inactive: -0.113,inactive: -0.048
GAL (UniProt P22466),inactive: -0.203,,,inactive: -0.157,,inactive: -0.043,inactive: 0.015,,,
FUT10 isoform 2 (UniProt Q6P4F1),,,inactive: -0.006,,,,,,,
FRMPD3 (UniProt Q5JV73),inactive: 0.766,,inactive: -0.092,inactive: -0.039,,inactive: -0.241,inactive: -0.356,,inactive: 0.31,inactive: -0.157
GEMIN2 (UniProt O14893),,inactive: -0.086,active: -0.428,,inactive: 0.057,inactive: -0.013,inactive: -0.069,inactive: -0.042,,
FRAT1 (UniProt Q92837),,,,,,,inactive: -0.039,,,
FTSJ1 isoform 2 (UniProt Q9UET6),inactive: 0.034,,,inactive: 0.059,,,,,,
G6PC3 (UniProt Q9BUM1),inactive: 0.006,,,inactive: -0.004,,,,,,
GFM2 (UniProt Q969S9),,,,,,inactive: 0.096,,,,
GATAD2B (UniProt Q8WXI9),inactive: 0.007,,inactive: 0.013,inactive: 0.035,,,inactive: -0.03,,inactive: 0.049,inactive: 0.011
GABPB1 (UniProt Q06547),inactive: 0.043,,,inactive: 0.023,,inactive: -0.025,inactive: 0.121,,inactive: -0.047,inactive: -0.001
FPGS (UniProt Q05932),inactive: -0.004,,inactive: -0.03,inactive: -0.089,,inactive: 0.02,inactive: -0.11,,,
GGACT (UniProt Q9BVM4),,,,,,,inactive: 0.059,,,
GDPD5 (UniProt Q8WTR4),,,inactive: -0.02,,,inactive: -0.342,,,,
FUT1 (UniProt P19526),,,inactive: -0.121,,,,,,,
GATC (UniProt O43716),,inactive: 0.134,inactive: -0.02,,inactive: -0.035,inactive: -0.052,inactive: 0.003,inactive: -0.039,inactive: -0.039,inactive: 0.006
GANAB (UniProt Q14697),,,,,,,,,inactive: 0.583,inactive: -0.037
